Measured values as given in PubChem BioAssay AID1347426 (Functional Genomics Laboratory (NCATS/FGL), 2020).
Screen size: about 31,000 sequences; about 1,400 (4.5%) were called active.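 How the source made its calls: active means median seed-adjusted z-score above 1 or below -1; inactive means the rest.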 The list shows a part of the results.

assay: Novel Modifiers of Survival Motor Neuron (SMN) Protein: Gene Identification via Genome-wide siRNA Screen; settings: HEK293T SMN2-luciferase reporter, siRNA knockdown, 72 h; actives lie on both sides;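 further: luminescence tracks full-length SMN protein made from the SMN2 reporter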
Summary of the method: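 Each of three siRNAs per gene is reverse-transfected (1 pmol) into reporter HEK293T cells whose luciferase output tracks SMN protein level. After 72 h culture, ONE-Glo luminescence is control-normalized, log10-transformed and MAD-standardized; Common Seed Analysis deprioritizes seed-driven hits.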

| Sequence | median seed-adjusted z-score |
| --- | --- |
| GACCAGACAUCAAGCUUUATT against PARG | inactive: 0 |
| GGAAUAUUCUUCAGCUACATT against ZBTB24 | inactive: -0.156 |
| CGUGAAAAGUGAGCUAGAUTT against JDP2 | inactive: -0.202 |
| GGUCUGAUCCUGAACAACATT against ASPN | inactive: -0.0432 |
| AGCAAGAGAUUGACAAAAATT against LETM1 | inactive: -0.491 |
| GUUGGUUUCUUCAAACGGATT against ITGAL | inactive: 0.537 |
| ACAGAACCUUCGACAAGUATT against GCGR | inactive: -0.224 |
| GCAUCAACCAAGACCUGUATT against CSGLCA-T | inactive: 0.146 |
| AGAAAUUUGUCACCUAUUUTT against RGL4 | inactive: 0.201 |
| GCUCCUAUAACUCAAGUAATT against GPR158 | inactive: 0.198 |
| GGAUAGAAUCUCCACUGAATT against RAE1 | inactive: 0.929 |
| CAACAAGAAUAAUGACGAATT against BCHE | inactive: 0.117 |
| GCAUUUCUUGGGUUGGUGATT against GABPA | active: 1.43 |
| GAACAUCUCCGCAACAAGATT against VAMP8 | inactive: -0.184 |
| CCUCCGAUGUUGUCCUAGATT against GNL3 | inactive: 0.572 |
| GGAUUAUUUCUGGUUCCUATT against ATP8A2 | inactive: 0 |
| GGAUAUCCGUGAUUGUUCATT against BNIP1 | inactive: 0.259 |
| CUCCUACGCUCUAUACAAATT against TRPM8 | inactive: 0.405 |
| GCCAGAGUCCUGAUGCACATT against GPR31 | inactive: -0.0381 |
| CCAGGACCUGACUCCUUUATT against GSG2 | inactive: 0.804 |
| AGACGGCUCAGAUAGCAUATT against HMBS | inactive: 0.422 |
| CGAAUGAUGUGAAGCAUCATT against PRKX | inactive: 0.0341 |

Nothing new here: entries from further up.

| Sequence | median seed-adjusted z-score |
| --- | --- |
| GGAAUAUUCUUCAGCUACATT against ZBTB24 | inactive: -0.156 |
| CGUGAAAAGUGAGCUAGAUTT against JDP2 | inactive: -0.202 |

(continued)

| Sequence | median seed-adjusted z-score |
| --- | --- |
| CGUUCCAGGUUUUUGUAUUTT against CD244 | inactive: 0 |
| CAAUGAUUCUUGUUGGUAATT against RAP1B | inactive: -0.0262 |
| GGUCGUGAAUUGUACAGCATT against HERC1 | inactive: 0.168 |
| GUUGUUCUCAGGUCUGAAUTT against ACOT2 | inactive: 0.578 |
| GGAGAUUGGGAGCAACAAATT against NLRP11 | inactive: 0.181 |
| GAUGGAUACCUCUACCUGATT against ZNF593 | inactive: 0.215 |
| AGGUGAAUGCGCUCACUUATT against ELMO3 | inactive: -0.0898 |
| GACCAAGACUCAAUCCAUUTT against SLC1A2 | inactive: 0.249 |
| GGGAUGCUCUUCACAGCUATT against SEMA6B | inactive: 0.311 |
| GAAUGACUGUCACCGCAUATT against DCP1A | inactive: 0.361 |
| GAUUAUCGAGGUUAAAAAUTT against LONP1 | inactive: -0.291 |
| GGAGCGAAUGAAUACCCUUTT against DYNC1H1 | inactive: 0 |
| GCAUUCAUCACUUCGAAAATT against BNC2 | inactive: -0.0556 |
| GGAUAGUGAUGCCUACGAATT against F11R | inactive: -0.329 |
| GCAUCUGCAAGCUCAUUGATT against NOD2 | inactive: 0.129 |
| GCAUUGAUCAAUUUGCAAATT against LSM1 | inactive: 0 |
| CGCACAUAUUUCAGUCUGATT against ZNF468 | inactive: -0.0435 |
| CCCUAGAGCCGAAAAGAAATT against NKX2-5 | inactive: 0.719 |
| CGCAAUCGUUUUUACCAAATT against MORC3 | inactive: 0.245 |
| GGACUCUACUGCUAAAGUATT against TBC1D8B | inactive: -0.985 |
| CCACAAUGCCGGUAUCAGUTT against DHRS13 | inactive: 0.192 |
| GGAAGGCUAUUCAAAAUAATT against SERBP1 | inactive: 0.143 |

| Sequence | median seed-adjusted z-score |
| --- | --- |
| CCAAGAUUCCUGACACCAATT against MAP4K2 | inactive: -0.439 |
| GGCUAUCUGGAAAUCAGUUTT against GTF2IRD2 | inactive: 0.904 |
| CAAUGAAGAUGAGCCGUAATT against FXYD2 | inactive: -0.383 |
| GGCAGUUUUUGGUAGCUCUTT against ETV1 | inactive: 0.167 |
| GCAUCCAGUGCGUUAGUAATT against USP6 | inactive: -0.285 |
| GCAUGUAGCUGAGAACAAUTT against PCDHGB3 | inactive: 0.275 |
| GACAGAAGAUCAAUAUGAATT against ETS2 | inactive: 0.636 |
| AGAAGAUACAGACCCGCAATT against LOC650864 | inactive: 0.214 |
| GGAUUCUAACAGUUUUAGATT against AGXT2L1 | inactive: 0.285 |
| GGAUAUCUGUCAUUCAGCATT against MLC1 | inactive: -0.284 |
| GCUUCGUGCUAGAUAAAGATT against NOP14 | inactive: -0.344 |
| GGAACAGGCUAUCAGAACATT against TTC8 | inactive: 0 |
| GCAUUGCUGUCUCUAGGUUTT against SATB1 | inactive: 0 |
| CAGGUACCCGGAAAUUAAATT against SCNN1A | inactive: -0.137 |
| CCACCAUUGGGUUAACUGUTT against ABO | inactive: 0 |
| GUACUACAGUUUAUUCGCATT against PARP4 | inactive: -0.226 |
| CGAAACAGCUGUUACCGUATT against AKAP12 | inactive: -0.104 |
| GAUAGACCAUCUACACCUATT against SNX16 | inactive: -0.111 |
| GCAUGGAGCUUACACCUGATT against DPM2 | inactive: -0.419 |
| GCACUGCGUAUGAAGAUUATT against HNRNPR | inactive: 0.308 |
| AGAUAGAUGGUGAAAGAGATT against GPR39 | inactive: 0.0998 |
| CAGUCGAACUCGUGAAUGATT against UBE2Q1 | inactive: -0.241 |

A few values from the results shown:
CCAAGAUUCCUGACACCAATT against MAP4K2 – median seed-adjusted z-score: inactive: -0.439
GGAACAGGCUAUCAGAACATT against TTC8 – median seed-adjusted z-score: inactive: 0

Following part:

| Sequence | median seed-adjusted z-score |
| --- | --- |
| CCAUGGAUAUAUCGGUUAATT against LRRTM4 | inactive: 0 |
| GCGCAAUAGGGAUUAUGCATT against SLC6A16 | inactive: -0.461 |
| UAAAAGCAGUGUCGACUUATT against EXOSC7 | inactive: 0.0148 |
| CAUUGACUGGAAUAAGCUATT against RPS6KA1 | inactive: 0.194 |
| GCUCUAAUGAGCAACAGUATT against POU2F1 | inactive: 0.317 |
| GGUGAAACCUGACCGCAAATT against MTNR1A | inactive: 0 |
| GGAAAAGUAUCUAAAGGAATT against CHKA | inactive: -0.558 |
| UGAACACUACGAACUCAAATT against CDH15 | inactive: 0 |
| CCUACUCAAUGUGAUAUAUTT against ADAMDEC1 | inactive: 0.0106 |
| CGUGUUAUGAAACCAUUAATT against GDI2 | inactive: -0.161 |
| UGAUGACGCCUAUCAAUGATT against ADD2 | inactive: -0.176 |
| UAAUAAUUCUCACUCCUAATT against FZD5 | inactive: -0.129 |
| GGAUGGUAGUUUUGAGUCATT against CCNA2 | inactive: 0.136 |
| GGGCUGUACCUGAUAGUCUTT against ALPK2 | inactive: -0.154 |
| GGACAACAGGGAACAGGAATT against INHBC | inactive: -0.66 |
| CGAGCAAUAUUGGAGUCAATT against GK5 | inactive: -0.118 |
| ACUUAAUGCCUGCCUAUUATT against CYP21A2 | inactive: -0.26 |
| GCUACACUAUUGACUCCAATT against SLC26A10 | inactive: -0.169 |
| CAGCAAUGCGAAUAACUAATT against TRIM38 | inactive: -0.375 |
| CCAAUAUCAUGGAAGUUAATT against PFKFB3 | inactive: -0.133 |
| CAACAACCCUUAUCGUAAATT against POLQ | inactive: 0.203 |
| GCCUGACAAGUACUCCUUATT against PGK1 | inactive: -0.0196 |

| Sequence | median seed-adjusted z-score |
| --- | --- |
| CAGGCAUAGUCUUAACCUUTT against DDX56 | inactive: 0.904 |
| UGUUCUCCAUGUUCGAACATT against MYL2 | inactive: -0.0369 |
| GGGAGUACCUGGACUACGATT against NOC4L | inactive: -0.315 |
| CCUCGGACCAGUUACAACATT against BDP1 | inactive: -0.0359 |
| GCUGUUCAACGUCUACCCATT against CYP2W1 | inactive: -0.0986 |
| CUCUGACCCAUAUAUCAAATT against SYT4 | inactive: -0.354 |
| GCGUUUCGAUCUGAGGAAATT against PRKAB2 | inactive: 0.17 |
| GAAACACCAACUUACGUUATT against DLG1 | inactive: 0.0642 |
| CCUCUACCAUUGCAACUGATT against SLC22A7 | inactive: -0.387 |
| GGAAGACGAUAGUGACAAATT against MYT1L | inactive: -0.43 |
| GAUCUGGUUCAACAACAAATT against ABCA7 | inactive: -0.711 |
| UCAUGGUCUUGCUCCGUUATT against CCBP2 | inactive: -0.0896 |
| UGGGAAUGGUAGAAACAAATT against PPIL1 | inactive: 0.166 |
| CCAUGGACAACAACAGUAATT against FOXO1 | inactive: 0.0591 |
| GCCUUGUAGCAGUGAGUGATT against PRMT3 | inactive: 0.00875 |
| GCACGUCGAGCAAUCCAAATT against MYOD1 | inactive: 0.309 |
| AGAUUAUGUUCCUGCUGUATT against NMB | inactive: 0.746 |
| CGAGGAGUUUGAGUAUCGATT against CKS1B | inactive: 0.00314 |
| GGAUGCUAUGAAUAAGUUUTT against MOXD1 | inactive: -0.162 |
| CCCGGAAUGUGCAGCACUATT against PGLYRP1 | inactive: -0.559 |
